# According to article PMC4162605:
# The chains behind the UniProt entries cited, without tags or fusion partners. Residues count along the entry.
# UniProt P49302, residues 8-384: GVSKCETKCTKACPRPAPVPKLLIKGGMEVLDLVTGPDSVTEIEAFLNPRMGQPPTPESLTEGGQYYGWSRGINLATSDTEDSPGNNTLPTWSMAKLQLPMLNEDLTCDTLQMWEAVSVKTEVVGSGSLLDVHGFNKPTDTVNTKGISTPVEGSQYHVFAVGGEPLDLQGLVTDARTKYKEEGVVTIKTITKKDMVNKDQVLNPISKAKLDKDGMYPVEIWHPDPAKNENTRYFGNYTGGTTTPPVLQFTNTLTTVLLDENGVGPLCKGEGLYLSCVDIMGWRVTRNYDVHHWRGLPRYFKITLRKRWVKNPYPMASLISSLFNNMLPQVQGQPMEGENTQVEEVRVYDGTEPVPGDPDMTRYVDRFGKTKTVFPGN
# No constants are given. Whether binding was seen depends on the method and setting. Some entries that bind do so weakly or less than the wild type.
# Target: wild-type murine polyomavirus (MPV) VP1 capsomere, as used for VLP assembly (AF4) (murine polyomavirus) (UniProt P49302)
# Assay: asymmetrical flow field-flow fractionation (AF4); Assembly Buffer, over time; capsomere peak and VLP peak; capsomeres to VLP; both purified
substance,measurement,value
"wild-type murine polyomavirus (MPV) VP1 capsomere, as used for VLP assembly (AF4) (from UniProt P49302 8-384)",binding,binds
